Some of the results follow. Small differences around the control level are noise.

Chains of the proteins cited; added tags and fusions are not shown. Lines headed by an entry give the natural chain unless they say otherwise; changes in a name come on top.
UniProt Q8BVU0: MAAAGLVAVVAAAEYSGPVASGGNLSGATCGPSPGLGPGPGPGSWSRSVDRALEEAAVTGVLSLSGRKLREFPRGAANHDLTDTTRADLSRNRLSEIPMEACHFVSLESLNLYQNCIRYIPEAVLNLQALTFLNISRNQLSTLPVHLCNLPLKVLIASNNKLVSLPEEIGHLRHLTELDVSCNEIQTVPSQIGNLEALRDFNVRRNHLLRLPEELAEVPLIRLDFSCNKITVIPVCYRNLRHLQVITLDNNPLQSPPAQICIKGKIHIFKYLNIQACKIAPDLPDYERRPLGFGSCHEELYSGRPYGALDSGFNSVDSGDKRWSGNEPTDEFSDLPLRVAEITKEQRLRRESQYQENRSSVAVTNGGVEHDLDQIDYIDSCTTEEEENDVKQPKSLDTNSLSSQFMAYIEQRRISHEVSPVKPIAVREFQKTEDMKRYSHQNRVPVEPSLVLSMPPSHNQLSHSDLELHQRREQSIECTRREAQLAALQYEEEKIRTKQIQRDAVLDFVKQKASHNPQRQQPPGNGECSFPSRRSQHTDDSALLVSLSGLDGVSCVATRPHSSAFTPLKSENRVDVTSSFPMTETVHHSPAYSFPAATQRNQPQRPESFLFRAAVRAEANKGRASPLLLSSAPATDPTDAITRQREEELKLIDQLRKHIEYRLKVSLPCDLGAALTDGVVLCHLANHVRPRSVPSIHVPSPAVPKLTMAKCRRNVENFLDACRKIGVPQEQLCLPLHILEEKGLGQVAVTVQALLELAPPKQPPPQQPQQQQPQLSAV
UniProt Q8BZJ7: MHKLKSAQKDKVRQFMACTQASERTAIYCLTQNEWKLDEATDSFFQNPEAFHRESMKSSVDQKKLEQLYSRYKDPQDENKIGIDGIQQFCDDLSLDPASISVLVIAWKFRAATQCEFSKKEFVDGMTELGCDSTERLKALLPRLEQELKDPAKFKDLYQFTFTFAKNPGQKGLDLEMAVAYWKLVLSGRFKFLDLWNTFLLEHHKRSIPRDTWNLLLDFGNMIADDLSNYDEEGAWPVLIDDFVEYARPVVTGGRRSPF
UniProt Q8C310: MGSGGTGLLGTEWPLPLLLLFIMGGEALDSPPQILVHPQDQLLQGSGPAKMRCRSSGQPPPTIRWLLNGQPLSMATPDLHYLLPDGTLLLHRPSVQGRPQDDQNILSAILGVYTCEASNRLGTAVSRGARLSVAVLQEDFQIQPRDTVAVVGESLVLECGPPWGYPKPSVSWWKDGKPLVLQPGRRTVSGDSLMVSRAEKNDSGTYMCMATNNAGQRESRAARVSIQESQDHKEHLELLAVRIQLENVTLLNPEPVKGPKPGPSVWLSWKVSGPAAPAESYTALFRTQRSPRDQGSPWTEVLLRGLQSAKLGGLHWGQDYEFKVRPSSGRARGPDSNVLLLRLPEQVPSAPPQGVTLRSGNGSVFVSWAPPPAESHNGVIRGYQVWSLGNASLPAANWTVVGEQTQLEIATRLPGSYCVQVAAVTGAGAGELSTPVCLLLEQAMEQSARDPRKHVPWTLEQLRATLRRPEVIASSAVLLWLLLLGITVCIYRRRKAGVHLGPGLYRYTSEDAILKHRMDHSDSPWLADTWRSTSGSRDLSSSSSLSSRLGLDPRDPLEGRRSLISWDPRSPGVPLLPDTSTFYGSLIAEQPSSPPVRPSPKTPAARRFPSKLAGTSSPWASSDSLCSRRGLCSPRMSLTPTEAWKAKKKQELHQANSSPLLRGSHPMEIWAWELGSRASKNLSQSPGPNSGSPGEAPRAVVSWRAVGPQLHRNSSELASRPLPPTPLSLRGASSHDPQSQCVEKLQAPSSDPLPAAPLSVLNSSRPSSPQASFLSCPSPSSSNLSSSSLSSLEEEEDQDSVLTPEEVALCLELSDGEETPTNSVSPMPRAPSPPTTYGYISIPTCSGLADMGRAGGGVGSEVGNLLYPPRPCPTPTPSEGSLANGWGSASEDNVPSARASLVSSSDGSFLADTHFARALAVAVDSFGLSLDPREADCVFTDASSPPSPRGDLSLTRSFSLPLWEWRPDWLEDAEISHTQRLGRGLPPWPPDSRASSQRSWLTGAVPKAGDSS
UniProt Q8BXA1: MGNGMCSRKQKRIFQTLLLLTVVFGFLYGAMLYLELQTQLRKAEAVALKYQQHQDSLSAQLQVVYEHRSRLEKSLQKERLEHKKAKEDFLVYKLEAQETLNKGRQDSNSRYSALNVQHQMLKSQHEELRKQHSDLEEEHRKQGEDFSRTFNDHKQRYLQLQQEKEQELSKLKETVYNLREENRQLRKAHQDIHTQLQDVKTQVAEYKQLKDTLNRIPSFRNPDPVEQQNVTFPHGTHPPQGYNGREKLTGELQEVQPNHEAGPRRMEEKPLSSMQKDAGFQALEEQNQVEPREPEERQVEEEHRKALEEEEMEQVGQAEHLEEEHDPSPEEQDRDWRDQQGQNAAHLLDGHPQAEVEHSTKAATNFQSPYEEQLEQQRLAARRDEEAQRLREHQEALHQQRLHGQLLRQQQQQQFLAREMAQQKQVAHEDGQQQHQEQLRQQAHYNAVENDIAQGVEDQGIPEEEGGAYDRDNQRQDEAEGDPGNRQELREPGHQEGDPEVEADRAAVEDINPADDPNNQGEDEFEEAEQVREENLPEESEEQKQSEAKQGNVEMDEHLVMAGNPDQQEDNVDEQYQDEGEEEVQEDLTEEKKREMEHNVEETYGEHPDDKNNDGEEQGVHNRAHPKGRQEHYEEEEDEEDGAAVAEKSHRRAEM
UniProt Q8C7D2: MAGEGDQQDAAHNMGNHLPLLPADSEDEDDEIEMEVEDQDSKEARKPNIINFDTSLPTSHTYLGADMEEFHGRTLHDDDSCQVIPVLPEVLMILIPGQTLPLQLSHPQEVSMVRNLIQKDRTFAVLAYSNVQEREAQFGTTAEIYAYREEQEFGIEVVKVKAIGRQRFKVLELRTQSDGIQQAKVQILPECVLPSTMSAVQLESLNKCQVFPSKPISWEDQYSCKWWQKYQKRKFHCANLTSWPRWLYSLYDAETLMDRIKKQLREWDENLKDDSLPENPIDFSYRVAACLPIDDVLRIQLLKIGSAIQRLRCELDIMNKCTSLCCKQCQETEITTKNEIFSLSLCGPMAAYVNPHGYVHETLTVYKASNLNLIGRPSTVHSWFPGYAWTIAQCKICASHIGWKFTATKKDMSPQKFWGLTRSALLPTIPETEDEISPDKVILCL
UniProt Q8C190: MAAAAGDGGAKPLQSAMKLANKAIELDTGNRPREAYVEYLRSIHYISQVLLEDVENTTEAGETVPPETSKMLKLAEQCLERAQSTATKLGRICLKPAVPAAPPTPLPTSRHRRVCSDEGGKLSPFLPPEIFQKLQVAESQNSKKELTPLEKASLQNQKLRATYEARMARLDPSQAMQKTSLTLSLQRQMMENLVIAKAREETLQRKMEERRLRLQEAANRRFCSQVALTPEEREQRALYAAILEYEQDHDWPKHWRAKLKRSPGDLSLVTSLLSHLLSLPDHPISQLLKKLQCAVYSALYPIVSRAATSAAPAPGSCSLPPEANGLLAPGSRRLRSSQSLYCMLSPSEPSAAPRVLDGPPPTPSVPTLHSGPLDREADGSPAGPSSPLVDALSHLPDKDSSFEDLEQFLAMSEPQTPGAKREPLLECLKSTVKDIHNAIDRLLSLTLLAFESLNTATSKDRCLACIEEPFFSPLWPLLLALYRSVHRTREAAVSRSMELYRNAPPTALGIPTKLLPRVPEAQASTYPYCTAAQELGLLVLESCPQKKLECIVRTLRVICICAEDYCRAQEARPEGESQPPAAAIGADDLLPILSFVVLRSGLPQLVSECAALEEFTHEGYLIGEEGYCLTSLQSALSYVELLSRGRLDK
UniProt Q8C3W1: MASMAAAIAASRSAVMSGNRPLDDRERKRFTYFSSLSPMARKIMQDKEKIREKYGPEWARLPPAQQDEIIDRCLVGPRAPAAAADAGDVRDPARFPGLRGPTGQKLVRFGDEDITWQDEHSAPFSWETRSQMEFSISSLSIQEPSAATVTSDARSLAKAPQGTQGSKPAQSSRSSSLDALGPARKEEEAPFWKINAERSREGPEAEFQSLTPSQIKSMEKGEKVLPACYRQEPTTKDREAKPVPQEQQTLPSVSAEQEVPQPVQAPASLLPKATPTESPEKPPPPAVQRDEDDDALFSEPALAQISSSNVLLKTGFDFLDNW
UniProt Q8C0D9: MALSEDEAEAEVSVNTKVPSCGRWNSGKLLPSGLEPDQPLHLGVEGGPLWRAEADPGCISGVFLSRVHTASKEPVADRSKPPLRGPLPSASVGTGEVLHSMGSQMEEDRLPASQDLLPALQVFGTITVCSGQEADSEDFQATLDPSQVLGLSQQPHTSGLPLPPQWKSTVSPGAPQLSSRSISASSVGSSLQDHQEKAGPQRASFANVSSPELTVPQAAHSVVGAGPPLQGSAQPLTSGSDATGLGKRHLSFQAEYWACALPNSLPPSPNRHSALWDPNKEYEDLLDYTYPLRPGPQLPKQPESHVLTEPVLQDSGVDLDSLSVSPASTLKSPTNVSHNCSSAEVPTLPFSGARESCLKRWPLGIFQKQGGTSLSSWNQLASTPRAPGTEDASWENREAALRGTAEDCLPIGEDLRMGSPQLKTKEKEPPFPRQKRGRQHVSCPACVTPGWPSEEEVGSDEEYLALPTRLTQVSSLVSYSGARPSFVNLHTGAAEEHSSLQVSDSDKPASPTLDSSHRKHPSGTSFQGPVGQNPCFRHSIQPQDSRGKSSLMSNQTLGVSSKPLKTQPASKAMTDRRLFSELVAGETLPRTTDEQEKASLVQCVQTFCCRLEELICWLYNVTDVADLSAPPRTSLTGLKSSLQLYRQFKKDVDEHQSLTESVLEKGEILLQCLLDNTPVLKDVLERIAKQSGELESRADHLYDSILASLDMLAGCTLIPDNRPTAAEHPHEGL
UniProt Q8BYJ6: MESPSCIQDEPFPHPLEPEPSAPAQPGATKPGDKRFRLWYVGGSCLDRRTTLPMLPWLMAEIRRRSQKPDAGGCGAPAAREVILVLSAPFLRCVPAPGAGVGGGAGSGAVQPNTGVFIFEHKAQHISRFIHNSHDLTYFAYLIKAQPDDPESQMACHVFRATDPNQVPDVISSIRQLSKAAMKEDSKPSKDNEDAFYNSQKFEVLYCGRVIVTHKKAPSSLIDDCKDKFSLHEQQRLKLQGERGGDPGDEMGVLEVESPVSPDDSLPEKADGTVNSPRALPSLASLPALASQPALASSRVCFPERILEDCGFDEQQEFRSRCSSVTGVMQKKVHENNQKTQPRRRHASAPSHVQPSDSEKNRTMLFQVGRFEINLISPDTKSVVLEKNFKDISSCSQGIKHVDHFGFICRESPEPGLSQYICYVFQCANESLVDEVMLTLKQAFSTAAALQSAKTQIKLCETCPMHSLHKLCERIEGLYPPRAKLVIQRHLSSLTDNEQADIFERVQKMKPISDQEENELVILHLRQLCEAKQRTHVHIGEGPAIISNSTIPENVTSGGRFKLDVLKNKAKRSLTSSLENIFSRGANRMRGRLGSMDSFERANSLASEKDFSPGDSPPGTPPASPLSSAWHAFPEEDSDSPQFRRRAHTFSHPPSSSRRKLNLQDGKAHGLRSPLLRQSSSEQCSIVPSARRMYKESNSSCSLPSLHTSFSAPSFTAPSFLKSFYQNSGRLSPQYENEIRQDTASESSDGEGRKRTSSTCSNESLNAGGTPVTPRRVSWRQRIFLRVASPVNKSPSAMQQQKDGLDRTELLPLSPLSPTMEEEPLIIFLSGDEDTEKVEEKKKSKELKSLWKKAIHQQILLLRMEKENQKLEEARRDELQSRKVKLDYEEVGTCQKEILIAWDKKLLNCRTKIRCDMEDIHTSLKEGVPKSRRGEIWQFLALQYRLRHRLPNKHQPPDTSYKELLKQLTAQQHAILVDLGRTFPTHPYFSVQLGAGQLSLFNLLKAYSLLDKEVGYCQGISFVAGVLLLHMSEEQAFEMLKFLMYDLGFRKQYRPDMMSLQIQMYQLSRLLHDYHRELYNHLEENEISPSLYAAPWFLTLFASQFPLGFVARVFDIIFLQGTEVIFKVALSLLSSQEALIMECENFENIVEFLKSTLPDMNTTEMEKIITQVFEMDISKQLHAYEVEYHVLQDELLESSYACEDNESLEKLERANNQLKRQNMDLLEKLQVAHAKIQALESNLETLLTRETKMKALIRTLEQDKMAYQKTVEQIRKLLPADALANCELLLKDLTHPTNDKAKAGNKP
UniProt Q8BXL7: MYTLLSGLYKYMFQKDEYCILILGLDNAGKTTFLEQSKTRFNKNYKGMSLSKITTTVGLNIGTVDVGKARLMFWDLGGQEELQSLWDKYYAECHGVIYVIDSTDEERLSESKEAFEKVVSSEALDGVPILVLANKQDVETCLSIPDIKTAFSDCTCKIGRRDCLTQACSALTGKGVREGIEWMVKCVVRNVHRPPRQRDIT

Compound in the test: CN[C@@H]1C[C@H]2O[C@@](C)([C@@H]1OC)n1c3ccccc3c3c4c(c5c6ccccc6n2c5c31)C(=O)NC4 [staurosporine]
The test is described as follows: log2 fold change of tryptic peptide abundance, ligand vs vehicle (limited proteolysis) (log2 ratio); higher = more trypsin-susceptible (destabilized). Conditions: ligand concentration: 20 uM; sample: mouse liver crude lysate; replicate design: treated separately.
In the case of “UniProt Q8BWN8 (peptide sequence: GPILFVAGQDDHCWR, peptide start residue: 316)”, the log2 fold change is -0.228.

Regarding “UniProt Q8C0N2 (peptide sequence: ACPHVWFER, peptide start residue: 284)”, the log2 fold change was found to be 0.352.

As for “UniProt Q8BVU0 (peptide sequence: ESQYQENR, peptide start residue: 351)”, the log2 fold change was -0.306.

As to “UniProt Q8BZJ7 (peptide sequence: QFMACTQASER, peptide start residue: 14)”, the log2 fold change is 0.0893.

For the target “UniProt Q8C0T5 (peptide sequence: KPEGTINSVGFMDTR, peptide start residue: 1468)”, the log2 fold change was -0.426.

For the target “UniProt Q8C310 (peptide sequence: AVGPQLHR, peptide start residue: 705)”, the log2 fold change is -0.447.

Regarding “UniProt Q8BXA1 (peptide sequence: QVEEEHR, peptide start residue: 298)”, the log2 fold change was -0.804.

For “UniProt Q8C0E2 (peptide sequence: TPGQLSDNNSRQ, peptide start residue: 325)”, the log2 fold change turned out to be 0.137.

With “UniProt Q8C341 (peptide sequence: IETIKPADPLHPIANGDIK, peptide start residue: 1114)”, the log2 fold change is -0.0911.

For the target “UniProt Q8BX90 (peptide sequence: LSESTSYK, peptide start residue: 1013)”, the log2 fold change stood at 0.184.

For the target “UniProt Q8BVH9 (peptide sequence: NWDLFYKR, peptide start residue: 44)”, the log2 fold change was found to be 0.235.

As to “UniProt Q8C181 (peptide sequence: FAHPPKSCQVENGR, peptide start residue: 36)”, the log2 fold change was -0.161.

As for “UniProt Q8C080 (peptide sequence: TKFTGTDSSIEYSARPR, peptide start residue: 75)”, the log2 fold change was 0.214.

Take “UniProt Q8C7D2 (peptide sequence: FKVLELR, peptide start residue: 168)”: the log2 fold change amounted to 0.0484.

Take “UniProt Q8C190 (peptide sequence: TSLTLSLQR, peptide start residue: 179)”: the log2 fold change came out at 0.402.

Consider “UniProt Q8BZ60 (peptide sequence: SQNSSVSSTTGK, peptide start residue: 339)”, for which the log2 fold change was -0.356.

Turning to “UniProt Q8BXJ8 (peptide sequence: VAGKPLKPK, peptide start residue: 388)”, the log2 fold change is 0.56.

“UniProt Q8BWH0 (peptide sequence: LLQSPCVDVVPK, peptide start residue: 25)”: the log2 fold change is -0.0829.

As for “UniProt Q8BZW2 (peptide sequence: FKGFVNSVAAVR, peptide start residue: 51)”, the log2 fold change amounted to 0.441.

On to “UniProt Q8C3W1 (peptide sequence: APAAAADAGDVRDPARFPGLR, peptide start residue: 79)”, for which the log2 fold change was -0.471.

For “UniProt Q8BY71 (peptide sequence: FQELVEDYRR, peptide start residue: 399)”, the log2 fold change was -0.0665.

In the case of “UniProt Q8C761 (peptide sequence: EKAEELPLAQKR, peptide start residue: 346)”, the log2 fold change worked out at 0.386.

As for “UniProt Q8C5N3 (peptide sequence: ETHSSYR, peptide start residue: 17)”, the log2 fold change is -0.337.

In the case of “UniProt Q8C142 (peptide sequence: GEELSAAAVKR, peptide start residue: 62)”, the log2 fold change was -0.244.

Regarding “UniProt Q8BWS5 (peptide sequence: SENPPPSHLTSK, peptide start residue: 253)”, the log2 fold change is -0.192.

As for “UniProt Q8C0D9 (peptide sequence: SISASSVGSSLQDHQEK, peptide start residue: 181)”, the log2 fold change is -0.244.

Regarding “UniProt Q8BYJ6 (peptide sequence: AHTFSHPPSSSR, peptide start residue: 647)”, the log2 fold change is -0.12.

As to “UniProt Q8BXL7 (peptide sequence: EGIEWMVK, peptide start residue: 178)”, the log2 fold change was -0.335.

As for “UniProt Q8C570 (peptide sequence: NAAEELKPR, peptide start residue: 357)”, the log2 fold change was -0.166.

As to “UniProt Q8BXK8 (peptide sequence: SLNKEWK, peptide start residue: 416)”, the log2 fold change is -0.239.

On to “UniProt Q8BWM0 (peptide sequence: AIEEAPSVHHVNPSCKD, peptide start residue: 368)”, for which the log2 fold change was determined as 0.31.

The record behind these values is the supplement of paper PMC12819154, “High-throughput peptide-centric local stability assay extends protein–ligand identification to membrane proteins, tissues and bacteria” (Nature Structural & Molecular Biology, 2025).
